Results deposited as PubChem BioAssay AID1259270 (Sanger Institute, 2017).
Screen: 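Follow-up of kinome hits for synergy with three anchor drugs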 (follow-up of hits). Cells: human SNU-C5 colorectal cancer cells. Reagents: single siRNA against human genes. Treatment: anchor drugs added after knock-down: BYL719 1 µM, cetuximab 5 µg/ml or trametinib 10 nM, or DMSO vehicle. Detection: 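Cell survival for each replicate, scaled to non-targeting control pool 2 and then averaged; drug given after knock-down; synergy score compares the combined effect with knock-down and drug separately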. Direction: synergy score with BYL719 and synergy score with cetuximab and synergy score with trametinib: higher = stronger synergy (extra killing) with the drug. Call rule: 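a score above 0.10 for BYL719, cetuximab or trametinib gives a synergy call; no score above 0.10 means no synergy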. Calls: active = synergy with at least one drug; inactive = no synergy with any drug.
This is an unselected part of 160 deposited reagents. 76 of them (48%) count as active. 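Four separate siRNAs per gene; calls are per siRNA in one cell line, looser than gene-level validation across several lines.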 The numbers tell different reagents against one gene apart. Not all columns of the deposit are shown. Not stated in the record: the amount of reagent, the time to read-out.

no.	target	reagent no.	synergy score with BYL719	synergy score with cetuximab	synergy score with trametinib	call
1	CDKN2D (cyclin dependent kinase inhibitor 2D)	1	-0.404	-0.0245	-0.0245	inactive
2	CDKN2D (cyclin dependent kinase inhibitor 2D)	2	-0.0606	-0.0827	0.116	active
3	CDKN2D (cyclin dependent kinase inhibitor 2D)	3	-0.0816	-0.112	-0.0184	inactive
4	CDKN2D (cyclin dependent kinase inhibitor 2D)	4	-0.0717	-0.0709	-0.0755	inactive
5	PIK3CA	1	0.147	0.219	0.0125	active
6	PIK3CA	2	-0.0602	0.315	0.0642	active
7	PIK3CA	3	0.177	0.0261	0.212	active
8	PIK3CA	4	-0.0313	0.0395	-0.0467	inactive
9	BRAF (B-Raf proto-oncogene, serine/threonine kinase)	1	-0.135	-0.0662	-0.357	inactive
10	BRAF (B-Raf proto-oncogene, serine/threonine kinase)	2	-0.203	-0.117	-0.101	inactive
11	BRAF (B-Raf proto-oncogene, serine/threonine kinase)	3	-0.0702	-0.0241	-0.098	inactive
12	BRAF (B-Raf proto-oncogene, serine/threonine kinase)	4	-0.0904	-0.05	-0.201	inactive
13	MPP3 (MAGUK p55 scaffold protein 3)	1	0.0623	0.0795	0.0209	inactive
14	MPP3 (MAGUK p55 scaffold protein 3)	2	-0.0747	0.169	0.295	active
15	MPP3 (MAGUK p55 scaffold protein 3)	3	-0.0459	-0.1	0.19	active
16	MPP3 (MAGUK p55 scaffold protein 3)	4	0.164	0.0571	0.143	active
17	NR2F2 (nuclear receptor subfamily 2 group F member 2)	1	0.132	0.0813	0.0942	active
18	NR2F2 (nuclear receptor subfamily 2 group F member 2)	2	-0.019	0.124	0.156	active
19	NR2F2 (nuclear receptor subfamily 2 group F member 2)	3	-0.0118	0.261	0.0908	active
20	NR2F2 (nuclear receptor subfamily 2 group F member 2)	4	-0.0287	-0.16	0.229	active
21	ACVR1 (activin A receptor type 1)	1	-0.000732	-0.0328	0.0216	inactive
22	ACVR1 (activin A receptor type 1)	2	-0.00106	-0.298	0.0638	inactive
23	ACVR1 (activin A receptor type 1)	3	-0.0986	-0.0892	0.134	active
24	ACVR1 (activin A receptor type 1)	4	-0.107	0.0595	0.13	active
25	HSPB8 (heat shock protein family B (small) member 8)	1	-0.096	0.0625	0.278	active
26	HSPB8 (heat shock protein family B (small) member 8)	2	-0.262	-0.0459	0.0668	inactive
27	HSPB8 (heat shock protein family B (small) member 8)	3	-0.109	0.0362	-0.0825	inactive
28	HSPB8 (heat shock protein family B (small) member 8)	4	0.103	-0.122	0.0823	active
29	COASY (Coenzyme A synthase)	1	0.0321	-0.0822	-0.259	inactive
30	COASY (Coenzyme A synthase)	2	0.0521	-0.0183	0.147	active
31	COASY (Coenzyme A synthase)	3	-0.131	-0.00331	-0.0629	inactive
32	COASY (Coenzyme A synthase)	4	-0.0295	-0.0831	-0.0691	inactive
33	MAP3K8 (mitogen-activated protein kinase kinase kinase 8)	1	-0.215	-0.0501	-0.0618	inactive
34	MAP3K8 (mitogen-activated protein kinase kinase kinase 8)	2	-0.0111	-0.17	-0.237	inactive
35	MAP3K8 (mitogen-activated protein kinase kinase kinase 8)	3	-0.161	-0.174	-0.305	inactive
36	MAP3K8 (mitogen-activated protein kinase kinase kinase 8)	4	-0.11	-0.117	0.155	active
37	MARK3 (microtubule affinity regulating kinase 3)	1	-0.187	-0.0245	0.122	active
38	MARK3 (microtubule affinity regulating kinase 3)	2	0.087	-0.000982	0.147	active
39	MARK3 (microtubule affinity regulating kinase 3)	3	-0.15	-0.0737	-0.326	inactive
40	MARK3 (microtubule affinity regulating kinase 3)	4	0.0129	-0.051	0.244	active
41	IKBKB (inhibitor of nuclear factor kappa B kinase subunit beta)	1	-0.207	-0.133	-0.349	inactive
42	IKBKB (inhibitor of nuclear factor kappa B kinase subunit beta)	2	-0.0262	0.0169	0.075	inactive
43	IKBKB (inhibitor of nuclear factor kappa B kinase subunit beta)	3	-0.359	-0.0966	-0.252	inactive
44	IKBKB (inhibitor of nuclear factor kappa B kinase subunit beta)	4	-0.127	-0.0224	0.0575	inactive

Part of the list above, set out differently.
CDKN2D (cyclin dependent kinase inhibitor 2D) #3 | synergy score with BYL719 = -0.0816; synergy score with cetuximab = -0.112; synergy score with trametinib = -0.0184; call = inactive
CDKN2D (cyclin dependent kinase inhibitor 2D) #4 | synergy score with BYL719 = -0.0717; synergy score with cetuximab = -0.0709; synergy score with trametinib = -0.0755; call = inactive
PIK3CA #1 | synergy score with BYL719 = 0.147; synergy score with cetuximab = 0.219; synergy score with trametinib = 0.0125; call = active
PIK3CA #2 | synergy score with BYL719 = -0.0602; synergy score with cetuximab = 0.315; synergy score with trametinib = 0.0642; call = active
PIK3CA #3 | synergy score with BYL719 = 0.177; synergy score with cetuximab = 0.0261; synergy score with trametinib = 0.212; call = active
PIK3CA #4 | synergy score with BYL719 = -0.0313; synergy score with cetuximab = 0.0395; synergy score with trametinib = -0.0467; call = inactive
BRAF (B-Raf proto-oncogene, serine/threonine kinase) #1 | synergy score with BYL719 = -0.135; synergy score with cetuximab = -0.0662; synergy score with trametinib = -0.357; call = inactive
